Laboratory results taken from patent US11160280B2, “Pesticial compounds” (BASF SE, priority 2017, dated 2021).
Some results were stated once for a whole list of compounds, not compound by compound.

Assays:
Format in all cases: in vivo
[1] = tested on: boll weevil (Anthonomus grandis); assay: Action on boll weevil (Anthonomus grandis), eggs on insect diet in microtiter plates; conditions: 800 ppm; egg and larval mortality after 5 days
Protocol: Example B3: Action on Boll Weevil (Anthonomus grandis)
For evaluating control of boll weevil (Anthonomus grandis) the test unit consisted of 96-well-microtiter plates containing an insect diet and 5-10 A. grandis eggs.
The compounds were formulated using a solution containing 75% v/v water and 25% v/v DMSO. Different concentrations of formulated compounds were sprayed onto the insect diet at 5 μl, using a custom built micro atomizer, at two replications.
After application, microtiter plates were incubated at about 25±1° C. and about 75±5% relative humidity for 5 days. Egg and larval mortality was then visually assessed.

[2] = tested on: tobacco budworm (Heliothis virescens); assay: Action on tobacco budworm (Heliothis virescens), eggs on insect diet in microtiter plates; conditions: 800 ppm; egg and larval mortality after 5 days
Protocol: Example B5: Action on Tobacco Budworm (Heliothis virescens)
For evaluating control of tobacco budworm (Heliothis virescens) the test unit consisted of 96-well-microtiter plates containing an insect diet and 15-25 H. virescens eggs.
The compounds were formulated using a solution containing 75% v/v water and 25% v/v DMSO. Different concentrations of formulated compounds were sprayed onto the insect diet at 10 μl, using a custom built micro atomizer, at two replications.
After application, microtiter plates were incubated at about 28±1° C. and about 80±5% relative humidity for 5 days. Egg and larval mortality was then visually assessed.

[3] = tested on: Diamond Back Moth (Plutella xylostella); assay: Action on diamond back moth (Plutella xylostella), cabbage leaf dip; conditions: 500 ppm; 3rd instar larvae on dipped cabbage leaves, mortality 72 hours after treatment
Protocol: Example B6: Action on Diamond Back Moth (Plutella xylostella)
The active compound is dissolved at the desired concentration in a mixture of 1:1 (vol:vol) distilled water:acetone. Surfactant (Kinetic® HV) is added at a rate of 0.01% (vol/vol). The test solution is prepared at the day of use.
Leaves of cabbage were dipped in test solution and air-dried. Treated leaves were placed in petri dishes lined with moist filter paper and inoculated with ten 3rd instar larvae. Mortality was recorded 72 hours after treatment. Feeding damages were also recorded using a scale of 0-100%.

[4] = tested on: Orchid thrips (Dichromothrips corbetti); assay: Action on orchid thrips (Dichromothrips corbetti), floral-immersion technique; conditions: 500 ppm; adult thrips, mortality 72 hours after treatment
Protocol: Example B2: Action on Orchid thrips (Dichromothrips corbetti)
Dichromothrips corbetti adults used for bioassay were obtained from a colony maintained continuously under laboratory conditions. For testing purposes, the test compound is diluted in a 1:1 mixture of acetone:water (vol:vol), plus Kinetic® HV at a rate of 0.01% v/v.
Thrips potency of each compound was evaluated by using a floral-immersion technique. All petals of individual, intact orchid flowers were dipped into treatment solution and allowed to dry in Petri dishes. Treated petals were placed into individual re-sealable plastic along with about […]. All test arenas were held under continuous light and a temperature of about 28° C. for duration of the assay. After 3 days, the numbers of live thrips were counted on each petal. The percent mortality was recorded 72 hours after treatment.

[5] = tested on: yellow fever mosquito (Aedes aegypti); conditions: 800 ppm; larval mortality visually assessed after 2 days
Protocol: Example B1: Action on Yellow Fever Mosquito (Aedes aegypti)
For evaluating control of yellow fever mosquito (Aedes aegypti) the test unit consisted of 96-well-microtiter plates containing 200 μl of tap water per well and 5-15 freshly hatched A. aegypti larvae.
The active compounds were formulated using a solution containing 75% (v/v) water and 25% (v/v) DMSO. Different concentrations of formulated compounds or mixtures were sprayed onto the insect diet at 2.5 μl, using a custom built micro atomizer, at two replications.
After application, microtiter plates were incubated at 28+1° C., 80+5% RH for 2 days. Larval mortality was then visually assessed.

[6] = tested on: Southern Armyworm (Spodoptera eridania), 2nd Instar Larvae; assay: Action on southern armyworm (Spodoptera eridania), 2nd instar larvae on sprayed lima bean plants; conditions: 300 ppm; 2nd instar larvae on lima bean plants, 4 days after treatment
Protocol: Example B7: Action on Southern Armyworm (Spodoptera eridania), 2nd Instar Larvae
The active compounds were formulated by a Tecan liquid handler in 100% cyclohexanone as a 10,000 ppm solution supplied in tubes. The 10,000 ppm solution was serially diluted in 100% cyclohexanone to make interim solutions. These served as stock solutions for which final dilutions were made by the Tecan in 50% acetone:50% water (v/v) into 10 or 20 ml glass vials. A nonionic surfactant (Kinetic®) was included in the solution at a volume of 0.01% (v/v). The vials were then inserted into an automated electrostatic sprayer equipped with an atomizing nozzle for application to plants/insects.
Lima bean plants (variety Sieva) were grown 2 plants to a pot and selected for treatment at the 1st true leaf stage. Test solutions were sprayed onto the foliage by an automated electrostatic plant sprayer equipped with an atomizing spray nozzle. The plants were dried in the sprayer fume hood and then removed from the sprayer. Each pot was placed into perforated plastic bags with a zip closure. About 10 to 11 armyworm larvae were placed into the bag and the bags zipped closed. Test plants were maintained in a growth room at about 25° C. and about 20-40% relative humidity for 4 days, avoiding direct exposure to fluorescent light (24 hour photoperiod) to prevent trapping of heat inside the bags. Mortality and reduced feeding were assessed 4 days after treatment, compared to untreated control plants.

Measured: mortality in comparison with untreated controls

CC(C)c1ccccc1NC(=S)NN=Cc1ccc2c(CS(=O)(=O)c3ccc(OC(F)(F)F)cc3)nn(C)c2c1 [Example C-29]
at least 75%: [1] | [2]

CC(C)c1ccccc1N1C(=O)CSC1=NN=Cc1ccc2c(CS(=O)(=O)c3ccc(OC(F)(F)F)cc3)nn(C)c2c1 [Example C-30]
not listed: [6]
at least 75%: all other assays above

CC(C)c1ccccc1NC(=S)NN=Cc1ccc2c(CSc3ccc(OC(F)(F)F)cc3)nn(C)c2c1 [Example C-33]
at least 75%: [1] | [2]

CC(C)c1ccccc1N1C(=O)CSC1=NN=Cc1ccc2c(CSc3ccc(OC(F)(F)F)cc3)nn(C)c2c1 [Example C-34]
at least 75%: [3] | [1] | [2]

CC(C)c1ccccc1NC(=S)NN=Cc1ccc2c(COc3ccc(C(F)(F)F)nn3)nn(C)c2c1 [Example C-37]
at least 75%: [3] | [1] | [2] | [4]

CC(C)c1ccccc1N1C(=O)CSC1=NN=Cc1ccc2c(COc3ccc(C(F)(F)F)nn3)nn(C)c2c1 [Example C-38]
at least 75%: all assays above

CCn1nc(COc2ccc(OC(F)(F)F)cc2)c2ccc(C=NNC(=S)Nc3ccccc3C(C)C)cc21 [Example C-41]
not listed: [6]
at least 75%: all other assays above

CCn1nc(C(=O)Nc2ccc(OC(F)(F)F)cc2)c2ccc(/C=N/NC(=S)Nc3ccccc3C(C)C)cc21 [Example C-43]
at least 75%: all assays above

CCn1nc(C(=O)Nc2ccc(OC(F)(F)F)cc2)c2ccc(C=NN=C3SCC(=O)N3c3ccccc3C(C)C)cc21 [Example C-44]
at least 75%: all assays above

CC(C)c1ccccc1NC(=S)N/N=C/c1ccc2c(C(=O)Nc3ccc(OC(F)(F)F)cc3)nn(CC(F)F)c2c1 [Example C-45]
not listed: [5]
at least 75%: all other assays above

CC(C)c1ccccc1N1C(=O)CSC1=NN=Cc1ccc2c(C(=O)Nc3ccc(OC(F)(F)F)cc3)nn(CC(F)F)c2c1 [Example C-46]
at least 75%: all assays above

CC(C)c1ccccc1NC(=S)N/N=C/c1ccc2c(C(=O)Nc3ccc(OC(F)(F)F)cc3)nn(Cc3ccccc3)c2c1 [Example C-47]
at least 75%: [2]

CC(C)c1ccccc1NC(=S)N/N=C/c1ccc2c(C(=O)Nc3ccc(OC(F)(F)F)cc3)nn(C(C)C)c2c1 [Example C-50]
at least 75%: [3] | [1] | [2]

CC(C)c1ccccc1N1C(=O)CSC1=NN=Cc1ccc2c(C(=O)Nc3ccc(OC(F)(F)F)cc3)nn(C(C)C)c2c1 [Example C-51]
at least 75%: all assays above

CC(C)c1ccccc1N=C1SCC(=O)N1N=Cc1ccc2c(C(=O)Nc3ccc(OC(F)(F)F)cc3)nn(C(C)C)c2c1 [Example C-52]
at least 75%: [3] | [4]

COC1C(C)OC(OC(=O)Nc2ccc3c(OCc4ccc(OC(F)(F)F)cc4)nn(C)c3c2)C(OC)C1OC (stereo not shown) [Example C-57]
not listed: [4]
at least 75%: all other assays above

CCCOC1C(OC)C(C)OC(OC(=O)Nc2ccc3c(OCc4ccc(OC(F)(F)F)cc4)nn(C)c3c2)C1OC (stereo not shown) [Example C-58]
not listed: [4]
at least 75%: all other assays above

COC1C(C)OC(OC(=O)Nc2ccc3c(OCc4ccc(OC(F)(F)F)cc4)noc3c2)C(OC)C1OC (stereo not shown) [Example C-60]
at least 75%: [3] | [1]

CCCOC1C(OC)C(C)OC(OC(=O)Nc2ccc3c(OCc4ccc(OC(F)(F)F)cc4)noc3c2)C1OC (stereo not shown) [Example C-61]
at least 75%: [3] | [2]
